In PubChem BioAssay AID1508600 (Functional Genomics Laboratory (NCATS/FGL), 2020) one finds z-score data, which are given here for 29 sequences.

Out of some 53,000 sequences screened, about 3,700 (7%) were called active.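 The calls were made as follows: active = gene knockdowns whose robust z-score for IL-1 alpha signal is at least 2 or at most -2, so actives lie on both sides; inactive = the rest.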 This is one part of the list.

The test in a line: Components of the Cytosolic LPS Sensing Pathway: Gene Identification via Genome-wide siRNA Screen. The following applies: RAW264.7 macrophages, IL-1a HTRF, actives lie on both sides, screened at 100 nM (by protocol), cells primed 5 h with Pam3CSK4 first. An excerpt: Non-canonical inflammasome activation by cytosolic LPS is a critical component of the host response to Gram-negative bacterial infection, however we lack a comprehensive understanding of the cellular processes that control this pathway. Here we describe a genome-wide siRNA screen to identify genes regulating the mouse macrophage IL-1 alpha response to cytosolic LPS.
RAW264.7 cells were maintained in complete DMEM media, comprising DMEM with 4.5 g/L glucose, 10% FBS (Gemini Bio-Products, West Sacramento, CA), 2 mM Glutamine (Lonza) and 20 mM HEPES (Lonza), hereafter complete DMEM.
The RNAi screen was conducted in 384-well format using the Ambion Silencer Mouse Genome siRNA Library (#4391425), which consists of three unique, nonoverlapping, nonpooled siRNAs for each of 17,000 gene targets. siRNA reagents ([…]) were stamped into 384-well white flat-bottom microplates (Corning, 3570) using a Velocity11 VPrep liquid handling system (Agilent) integrated into a BioCel robotic platform (Agilent) in columns 1-22, leaving columns 23-24 empty for negative (Ambion, Negative control #1) and positive (mouse Casp4) controls, respectively. The median value of each plate's negative control column was used to normalize sample wells, and the positive control was used to assess transfection efficiency and assay performance.
Lipofectamine RNAiMAX Transfection Reagent ([…]; Invitrogen) was added in […] serum-free, antibiotic-free media to plate wells using a Thermo Scientific Matrix WellMate and Microplate Stacker. Plates were incubated for 45 min at room temperature to allow for the sufficient formation of siRNA-lipid complexes. Cells were seeded at a density of 1x10^4 cells per well in 20 microL media containing 20% (vol/vol) FBS without antibiotics. The final concentration of siRNA in each well was 100 nM. Cells were cultured for 48h at 37 degrees C in 5% CO2 before addition of […] of TLR ligand Pam3CSK4 for 5 hours. The medium was then removed, replaced with […] growth media and cell were transfected with […] of LipidA and TransIT-TKO (Mirus) for 24 hour. At the end of the LipidA treatment, […] of supernatant was transferred to a 384 Greiner Bio-one non-binding low volume plate and […] of IL-1a HTRF reagent (Cisbio, 62MIL1APEH) was added and incubated at room temperature overnight. The plates were read on an EnVision plate reader (PerkinElmer). Cell viability was measured by adding 20ul Cell Titer Glo to the original plate and running a luminescence read on the EnVision. The quantified IL-1a signal for each siRNA gene-targeted well was divided by the median of the negative control wells and multiplied by 100 to achieve a negative control normalized value for each well/siRNA. This normalized value was then used to generate a robust z-score by first taking the log of each value and then by subtracting the median and dividing by the […].
(In general: In TR-FRET formats the signal depends on donor and acceptor labels being close together.)
On to GCUUCAAGCCUGAGAGUAUTT against Cct8l1, for which the z-score is inactive: -0.411.
The value for GGAAAUCUUCAUGAUCAGUTT against Fam24b was active: -2.24; that for “CCUACUUCUCAUCGCUGAGTT against 2310022B05Rik” was inactive: -0.455; that for GGUAGAUCCAACAAAACACTT against Vps54 was inactive: 0.622.
As for CCAAAACCUCAUGCUGAAATT against Zfp758, the figure is inactive: 0.396.
The value for GGAUAUUCUCUAGUCUCCATT against Pelo was inactive: -1.33.
As for GGUACUGGAGCAAUUGGCATT against Bpifc, the z-score was inactive: -1.22.
The value for GGAGAAAAAGUCCAAGUCGTT against Otud7a was inactive: -1.12; that for AUCAAGCAAGGGAACUCUGTT against Noto was inactive: 0.431; that for GGCCUAGAAACCUUGGUGUTT against Cyp2d10 was inactive: -0.297.
The value for GGGAAUGAGUCAGCUCUUUTT against Cd163 was inactive: -0.667; that for GCCUGUUGGUACCAAAUGGTT against Unc5b was inactive: -0.957; that for GGCGAUGAGUUUGAACUGCTT against Bcl2l1 was inactive: 1.75.
Regarding CGGACUAUUUGAAAUGGCUTT against Ppt2, the z-score was inactive: -0.464.
As for GCAUAAAGCAGUCAUGCUUTT against Gskip, the figure is inactive: -0.989; as for GCAAGACAGAACGUAUUAATT against Fem1c, inactive: -1.11.
As to GGAACAGUCGUGGUAAAGUTT against Gnl2, the z-score is inactive: -0.767.
Regarding GCAUUAUAUGGCUUCAUAUTT against Mfsd14b, the z-score is inactive: 1.37.
The value for GGACCAAAAGAACAAUACGTT against Sncaip was inactive: -1.36; that for GGUUCUCAUCAUUUCAACUTT against Sh3bgrl was inactive: -1.61; that for GGUCCACGGUUACUAAAAATT against Klrd1 was inactive: 1.58.
GGAACUCCUAGCACUGAAATT against Hdac4: the z-score is inactive: 1.17.
The value for CCUUUUUAUCGUCUAUAUCTT against Nox1 was inactive: 1.92; that for “CGUGUUAUCUCGUAUUGUUTT against 5930422O12Rik” was inactive: -0.454.
As for GGACAUGAUUAAUGAGGUGTT against Calm3, the figure is inactive: 0.451.
As to GCUGGAUGUGAAAAGAGCGTT against Aktip, the z-score is inactive: -0.00618.
GCCUCACGGUUAGUUGGGATT against Cyren: the z-score is inactive: 0.461.
As for GGACUCAACUGCACUGUUGTT against Izumo4, the z-score was active: -2.37.
The value for GCUCGAUGCGGAUGAAUAUTT against Lzic was inactive: 0.311.
